Experimental data as given in the supplement of paper PMC12823440, “Inhibitors supercharge kinase turnover through native proteolytic circuits” (Nature, 2025).
Structures can show the parent of a compound that is named as a salt. This is one part of the list. The calls rarely recur for the same compound in another form.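 In K562 cells expressing nanoluciferase-fused kinases, luminescence was recorded at 4 h intervals between 2 and 18 h, normalized as percent of control with DMSO at 100% and a positive control at 0%. A significant (2 sigma) signal drop marks a time point as decreased. The authors' rule for a hit is not shown and takes in more than the number of time points.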

Sequences of proteins named here, by UniProt entry; tags and fusion partners are left off. A change or cut given only in a name is not applied to a line headed by its entry.
UniProt P48730: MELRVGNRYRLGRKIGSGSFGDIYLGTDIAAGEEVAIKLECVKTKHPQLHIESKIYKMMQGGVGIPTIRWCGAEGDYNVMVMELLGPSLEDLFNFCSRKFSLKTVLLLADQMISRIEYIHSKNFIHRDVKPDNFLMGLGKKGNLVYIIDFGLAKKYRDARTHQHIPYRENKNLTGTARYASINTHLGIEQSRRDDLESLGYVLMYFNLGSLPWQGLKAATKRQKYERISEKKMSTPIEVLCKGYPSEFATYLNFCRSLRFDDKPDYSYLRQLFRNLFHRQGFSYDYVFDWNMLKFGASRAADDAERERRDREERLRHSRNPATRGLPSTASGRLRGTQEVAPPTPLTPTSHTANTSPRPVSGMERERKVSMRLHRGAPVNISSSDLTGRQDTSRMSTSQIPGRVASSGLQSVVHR
UniProt Q08345: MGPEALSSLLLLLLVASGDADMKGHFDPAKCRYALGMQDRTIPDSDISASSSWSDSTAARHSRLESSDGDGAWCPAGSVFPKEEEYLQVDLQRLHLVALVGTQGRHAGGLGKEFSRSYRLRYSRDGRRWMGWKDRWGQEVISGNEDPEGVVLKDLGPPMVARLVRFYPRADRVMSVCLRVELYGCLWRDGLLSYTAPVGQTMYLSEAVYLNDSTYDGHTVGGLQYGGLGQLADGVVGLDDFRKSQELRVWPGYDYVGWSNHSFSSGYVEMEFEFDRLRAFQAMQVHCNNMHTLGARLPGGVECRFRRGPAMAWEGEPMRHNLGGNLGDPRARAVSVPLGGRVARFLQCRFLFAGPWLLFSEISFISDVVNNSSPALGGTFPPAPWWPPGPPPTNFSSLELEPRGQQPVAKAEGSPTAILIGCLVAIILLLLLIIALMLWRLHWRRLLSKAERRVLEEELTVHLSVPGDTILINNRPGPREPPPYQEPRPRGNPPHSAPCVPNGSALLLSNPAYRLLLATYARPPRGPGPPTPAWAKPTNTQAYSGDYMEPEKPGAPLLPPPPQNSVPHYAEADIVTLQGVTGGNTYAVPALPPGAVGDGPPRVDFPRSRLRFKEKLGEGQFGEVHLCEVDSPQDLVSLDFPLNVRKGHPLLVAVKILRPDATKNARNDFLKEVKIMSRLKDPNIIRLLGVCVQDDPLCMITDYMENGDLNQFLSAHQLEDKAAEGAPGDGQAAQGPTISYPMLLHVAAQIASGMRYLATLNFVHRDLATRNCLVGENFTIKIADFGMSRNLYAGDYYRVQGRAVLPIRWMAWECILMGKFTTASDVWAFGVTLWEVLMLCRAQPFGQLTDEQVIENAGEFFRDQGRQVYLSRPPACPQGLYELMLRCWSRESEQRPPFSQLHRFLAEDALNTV

molecular target: CSNK1D (UniProt P48730); assay: kinase-Nluc reporter destabilization hit call (1 = scored as downregulated) (binary); higher = compound decreases kinase abundance; conditions: 10 µM; K562; 2-18 h

kinase-Nluc reporter destabilization hit call, inactive:
CCS(=O)(=O)N1CCN(c2ccc(Nc3ncc(C(N)=O)c(NC4CC4)n3)cc2)CC1 [Cerdulatinib (hydrochloride)] 0
C[C@@H](N)c1ccc(C(=O)Nc2ccnc3[nH]ccc23)cc1 0
COc1ncc(F)cc1CNc1ccc(Cc2c[nH]c3ncc(C)cc23)c(F)n1 0
CCS(=O)(=O)N1CC(CC#N)(n2cc(-c3ncnc4[nH]ccc34)cn2)C1 [Baricitinib (phosphate)] 0
COC(=O)[C@H](CC(C)C)NC(=O)c1ccc(NC[C@@H](N)CS)cc1-c1cccc2ccccc12 [GGTI298 (Trifluoroacetate)] 0
COCCOc1cc(F)c2c(Nc3ccc(NC(=O)Cn4cc(C(C)C)nn4)cc3)ncnc2c1 [AZD3229 Tosylate] 0
N#CCNC(=O)c1ccc(-c2ccnc(Nc3ccc(N4CCOCC4)cc3)n2)cc1 [Momelotinib sulfate] 0
Cn1ncc(Cl)c1-c1cc(C(=O)N[C@H](CN)Cc2cccc(F)c2)sc1Cl [Afuresertib] 0
CNC(=O)c1ccc(Nc2ncc(C(F)(F)F)c(NCc3nccnc3N(C)S(C)(=O)=O)n2)cc1 [Defactinib] 0
O=C(O)c1ccc2c(c1)nc(Nc1cccc(Cl)c1)c1ccncc12 [Silmitasertib] 0
O=C(Nc1cnn2ccc(N3CCC[C@@H]3c3cc(F)ccc3F)nc12)N1CC[C@H](O)C1 [Larotrectinib] 0
COc1cc2nccc(Oc3ccc(NC(=O)C4(C(=O)Nc5ccc(F)cc5)CC4)cc3)c2cc1OC [Cabozantinib (S-malate)] 0
CN(C)C(=N)NC(=N)N [Metformin (hydrochloride)] 0
COc1ccnc(C[S+]([O-])c2nc3cc(-n4cccc4)ccc3[nH]2)c1C (stereo not given) [Ilaprazole (sodium)] 0
C#Cc1cccc(Nc2ncnc3cc4c(cc23)OCCOCCOCCO4)c1 [Icotinib (Hydrochloride)] 0
CC(C)NC[C@@H](C(=O)N1CCN(c2ncnc3c2[C@H](C)C[C@H]3O)CC1)c1ccc(Cl)cc1 [Ipatasertib] 0
CC(=O)c1c(C)c2cnc(Nc3ccc(N4CCNCC4)cn3)nc2n(C2CCCC2)c1=O [Palbociclib (monohydrochloride)] 0
C#Cc1cccc(Nc2ncnc3cc(OCCOC)c(OCCOC)cc23)c1 [Erlotinib] 0
OCCn1cc(-c2cnc3nnn(Cc4ccc5ncccc5c4)c3n2)cn1 0
CCN(CC)CC(=O)Nc1c(C)cccc1C [Lidocaine] 0
CCS(=O)(=O)N1CCN(c2ccc(Nc3ncc(C(N)=O)c(NC4CC4)n3)cc2)CC1 [Cerdulatinib] 0
C#Cc1cccc(Nc2ncnc3cc(OCCOC)c(OCCOC)cc23)c1 [Erlotinib (Hydrochloride)] 0
O=C(c1ccc(F)c(F)c1Nc1ccc(I)cc1F)N1CC(O)([C@@H]2CCCCN2)C1 [Cobimetinib] 0
CC(=O)c1c(C)c2cnc(Nc3ccc(N4CCNCC4)cn3)nc2n(C2CCCC2)c1=O [Palbociclib (isethionate)] 0

Three entries picked at random from the list so far:
kinase-Nluc reporter destabilization hit call, inactive:
CCS(=O)(=O)N1CCN(c2ccc(Nc3ncc(C(N)=O)c(NC4CC4)n3)cc2)CC1 [Cerdulatinib (hydrochloride)] 0
COc1ncc(F)cc1CNc1ccc(Cc2c[nH]c3ncc(C)cc23)c(F)n1 0
Cn1ncc(Cl)c1-c1cc(C(=O)N[C@H](CN)Cc2cccc(F)c2)sc1Cl [Afuresertib] 0

molecular target: DDR1 (UniProt Q08345); assay: as above; conditions: 2 µM; K562; 2-18 h

kinase-Nluc reporter destabilization hit call, inactive:
CCc1nc(C(N)=O)c(Nc2ccc(N3CCC(N4CCN(C)CC4)CC3)c(OC)c2)nc1NC1CCOCC1 [Gilteritinib] 0
CCc1nc(C(N)=O)c(Nc2ccc(N3CCC(N4CCN(C)CC4)CC3)c(OC)c2)nc1NC1CCOCC1 [Gilteritinib hemifumarate] 0
Cc1[nH]c(/C=C2\C(=O)Nc3ccc(F)cc32)c(C)c1C(=O)NCCN1CCCC1 [Toceranib (phosphate)] 0
Cc1[nH]c(/C=C2\C(=O)Nc3ccc(F)cc32)c(C)c1C(=O)NCCN1CCCC1 [Toceranib] 0

same assay, conditions: 2.5 µM; K562; 2-18 h

kinase-Nluc reporter destabilization hit call, inactive:
C=CC(=O)Nc1cc(Nc2nccc(-c3cn(C)c4ccccc34)n2)c(OC)cc1N(C)CCN(C)C [Osimertinib mesylate] 0
c1cc(-c2cnn3cc(-c4ccc(OCCN5CCCCC5)cc4)cnc23)ccn1 [Dorsomorphin] 0
CN(C)C/C=C/C(=O)Nc1cc2c(Nc3ccc(F)c(Cl)c3)ncnc2cc1O[C@H]1CCOC1 [Afatinib (dimaleate)] 0
C=CC(=O)Nc1cc(Nc2nccc(-c3cn(C)c4ccccc34)n2)c(OC)cc1N(C)CCN(C)C [Osimertinib] 0
CN(C)C(=O)c1cc2cnc(Nc3ccc(N4CCNCC4)cn3)nc2n1C1CCCC1 [Ribociclib hydrochloride] 0
COc1ccc(S(=O)(=O)Nc2ccccc2CN(C)C/C=C/c2ccc(Cl)cc2)cc1 [KN-92 (hydrochloride)] 0
COc1ccc(S(=O)(=O)Nc2ccccc2CN(C)C/C=C/c2ccc(Cl)cc2)cc1 [KN-92 (phosphate)] 0
